Reference: the supplement of paper PMC7661543
± gives the standard deviation of the averaged measurements. Differences between knockout arms are mostly noise.

Test system: ZR-75-1
Assay: relative cell number vs DMSO control (72 h) (% of DMSO); higher = less growth inhibition (more cells)
Protocol: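 QMAP-Seq: a pool of 5 breast cancer cell lines (ZR-75-1, SKBR3, HCC-38, MDA-MB-231, BT-20), each carrying 12 doxycycline-inducible Cas9 sgRNA perturbations (11 knockouts plus non-targeting sgNT), was treated with compounds for 72 h at four 10-fold doses (10 nM-10 uM or 1 nM-1 uM range). Barcodes were amplified and sequenced, and cell number was interpolated from 293T spike-in standard curves. The result is expressed as % of the median of DMSO wells. Two biological replicates.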

[1] = sgRNA knockout: sgATF3, 1000 nM
[2] = sgRNA knockout: sgATF3, 10000 nM
[3] = sgRNA knockout: sgATF4, 1000 nM
[4] = sgRNA knockout: sgATF4, 10000 nM
[5] = sgRNA knockout: sgATF6, 1000 nM
[6] = sgRNA knockout: sgATF6, 10000 nM
[7] = sgRNA knockout: sgATG7, 1000 nM
[8] = sgRNA knockout: sgATG7, 10000 nM
[9] = sgRNA knockout: sgERN1, 1000 nM
[10] = sgRNA knockout: sgERN1, 10000 nM
[11] = sgRNA knockout: sgHSF2, 1000 nM
[12] = sgRNA knockout: sgHSF2, 10000 nM
[13] = sgRNA knockout: sgNFE2L2, 10 nM
[14] = sgRNA knockout: sgNFE2L2, 100 nM
[15] = sgRNA knockout: sgNFE2L2, 1000 nM
[16] = sgRNA knockout: sgNFE2L2, 10000 nM
[17] = sgRNA knockout: sgSLC35F2, 10 nM
[18] = sgRNA knockout: sgSLC35F2, 100 nM
[19] = sgRNA knockout: sgSLC35F2, 1000 nM
[20] = sgRNA knockout: sgSLC35F2, 10000 nM
[21] = sgRNA knockout: sgXBP1, 1000 nM
[22] = sgRNA knockout: sgXBP1, 10000 nM

Compound	relative cell number (sgRNA knockout: sgATF3, 10 nM)	relative cell number (sgRNA knockout: sgATF3, 100 nM)	relative cell number [1]	relative cell number [2]	relative cell number (sgRNA knockout: sgATF4, 10 nM)	relative cell number (sgRNA knockout: sgATF4, 100 nM)	relative cell number [3]	relative cell number [4]	relative cell number (sgRNA knockout: sgATF6, 10 nM)	relative cell number (sgRNA knockout: sgATF6, 100 nM)	relative cell number [5]	relative cell number [6]	relative cell number (sgRNA knockout: sgATG7, 10 nM)	relative cell number (sgRNA knockout: sgATG7, 100 nM)	relative cell number [7]	relative cell number [8]	relative cell number (sgRNA knockout: sgERN1, 10 nM)	relative cell number (sgRNA knockout: sgERN1, 100 nM)	relative cell number [9]	relative cell number [10]	relative cell number (sgRNA knockout: sgHSF2, 10 nM)	relative cell number (sgRNA knockout: sgHSF2, 100 nM)	relative cell number [11]	relative cell number [12]	relative cell number [13]	relative cell number [14]	relative cell number [15]	relative cell number [16]	relative cell number [17]	relative cell number [18]	relative cell number [19]	relative cell number [20]	relative cell number (sgRNA knockout: sgXBP1, 10 nM)	relative cell number (sgRNA knockout: sgXBP1, 100 nM)	relative cell number [21]	relative cell number [22]
CC[C@]1(O)C[C@H]2CN(CCc3c([nH]c4ccccc34)[C@@](C(=O)OC)(c3cc4c(cc3OC)N(C=O)[C@H]3[C@@](O)(C(=O)OC)[C@H](OC(C)=O)[C@]5(CC)C=CCN6CC[C@]43[C@@H]65)C2)C1 [Vincristine]	39.1 ± 5.8	18.1 ± 4	18.9 ± 1.9	16.3 ± 3.1	48.4 ± 11	33.2 ± 6.5	15.2 ± 0.95	13.6 ± 0.29	30.9 ± 6.5	20 ± 3	6.37 ± 3.1	9.55 ± 3	30.7 ± 2.2	21.2 ± 2.7	13.2 ± 6	9.16 ± 6.9	42.4 ± 7.9	20.2 ± 3.6	16.7 ± 1.5	16.6 ± 8.2	28.2 ± 2.6	22.1 ± 5.9	15.5 ± 0.8	10.5 ± 3.6	30.9 ± 12	15.4 ± 1.1	12.7 ± 1.4	10.8 ± 2.3	48.6 ± 26	19.8 ± 1.6	13.5 ± 7.3	19 ± 2.1	37.2 ± 5.8	20.2 ± 5	10.9 ± 1.1	7.63 ± 2
Cc1ncc([N+](=O)[O-])n1CC(O)CCl (stereo not drawn) [Ornidazole]	106 ± 12	98.5 ± 29	134 ± 74	96.3 ± 19	104 ± 23	101 ± 18	81.7 ± 18	116 ± 13	110 ± 34	97.9 ± 55	80.1 ± 9.6	74.9 ± 24	71.5 ± 25	92.9 ± 19	96.8 ± 33	114 ± 4.6	83 ± 4.7	87.7 ± 2.9	89 ± 7.7	87.8 ± 7.5	81.7 ± 1.9	87.2 ± 17	105 ± 5.3	99.3 ± 2.5	90.9 ± 4.1	102 ± 24	109 ± 6	90.6 ± 9.9	87.5 ± 50	89.4 ± 42	80.7 ± 61	82.6 ± 14	82.5 ± 0.85	89.9 ± 8.2	96.9 ± 15	92 ± 7.2
O=P1(NCCCl)OCCCN1CCCl (stereo not drawn) [Ifosfamide]	75.6 ± 2.1	94.8 ± 5.5	131 ± 7	85.4 ± 29	87.4 ± 0.91	108 ± 1.2	82.5 ± 18	92.4 ± 11	86.5 ± 7.6	76.8 ± 35	90.2 ± 20	88.7 ± 38	99.4 ± 33	77.6 ± 25	77.9 ± 30	88.2 ± 19	84.6 ± 4.2	98.1 ± 20	101 ± 22	97.3 ± 20	85.6 ± 3.9	93.9 ± 28	118 ± 18	87.2 ± 17	120 ± 31	118 ± 23	89.5 ± 45	78.2 ± 10	70.3 ± 43	108 ± 59	68 ± 8.1	92 ± 4.3	108 ± 10	99.7 ± 24	105 ± 2.5	85.1 ± 1.3
